{"source": "patent US5166321A", "about": "“Cecropin polypetides with activity against Gram-positive and Gram-negative bacteria” (International Genetic Engineering, Inc., priority 1987, dated 1992)", "key": {"[1]": {"test_system": "a broad range of organisms", "assay": "Agar-well halo assay, variety of organisms", "format": "cell-based", "conditions": "broad range of organisms (Table 3)"}, "B. subtilis": {"test_system": "B. subtilis", "assay": "Agar-well halo assay of bactericidal activity", "format": "cell-based, Bacillus subtilis", "conditions": "Bacillus subtilus; per nanomole of polypeptide applied to each well", "protocol": "The assay for antimicrobial activity was performed by pouring 10 ml of agar in TYE media containing about 10^7 viable cells of the test organisms. Wells, 2 mm in diameter, were punched in the agar plates. Aliquots of the modified cecropin-like polypeptides (2-12 ul) were then added to each well. The diameter of the inhibition zones, or haloes, around the wells, were measured after overnight incubation at 25° C.\nThe activities of various cecropin-like polypeptides were tested against both Gram-negative and Gram-positive organisms. Anti-microbial activity against the Gram-negative organisms remained unaltered for most of the Gram-negative bacteria (except, i.e., Serratia marcescens) as shown in Table 1. […] To determine a standard of halo formation, the various modified cecropin-like polypeptides were also applied to E. coli D21. Activity shown in Tables 1 and 2 is expressed as the ratio of the radius of the cleared halo for each organism versus that for E. coli D21.\nThe cecropin-like polypeptide modified at the carboxy terminus with ethylenediamine and naturally occurring cecropin A were tested against a variety of organisms. The relative activities of the antimicrobial agents were expressed per nanomole of polypeptide applied to each well (Table 3)."}}, "note": "At least one peptide structure holds a part that was inferred or is arguable (an end, a ring closure or a residue). Numbered stars: 1 amine (or outer) side, 2 acyl side, 3 side chain; on linkers, the order of the positions; unused ones are H or OH. Square brackets hold non-standard residues; d marks the D form. Peptide text beside a SMILES is read from it. Ethylenediamine = C(CN[*:2])N[*:1]; hSer = N[C@@H](CCO)C(=O)O", "data": [{"smiles": "CC[C@H](C)[C@H](NC(=O)CNC(=O)[C@H](CC(=O)O)NC(=O)[C@H](CCCNC(=N)N)NC(=O)[C@@H](NC(=O)[C@H](CC(N)=O)NC(=O)[C@H](CCC(N)=O)NC(=O)CNC(=O)[C@@H](NC(=O)[C@H](CCCCN)NC(=O)[C@H](CCC(=O)O)NC(=O)[C@@H](NC(=O)[C@H](CCCCN)NC(=O)[C@H](CCCCN)NC(=O)[C@H](Cc1ccccc1)NC(=O)[C@H](CC(C)C)NC(=O)[C@H](CCCCN)NC(=O)[C@H](Cc1c[nH]c2ccccc12)NC(=O)[C@@H](N)CCCCN)[C@@H](C)CC)C(C)C)[C@@H](C)CC)C(=O)N[C@H](C(=O)N[C@@H](CCCCN)C(=O)N[C@@H](C)C(=O)NCC(=O)N1CCC[C@H]1C(=O)N[C@@H](C)C(=O)N[C@H](C(=O)N[C@@H](C)C(=O)N[C@H](C(=O)N[C@H](C(=O)NCC(=O)N[C@@H](CCC(N)=O)C(=O)N[C@@H](C)C(=O)N[C@H](C(=O)N[C@@H](CCC(N)=O)C(=O)N[C@H](C(=O)N[C@@H](C)C(=O)N[C@@H](CCCCN)C(=O)N[C@@H](CCO)C(=O)NCCN)[C@@H](C)CC)[C@@H](C)O)C(C)C)C(C)C)C(C)C)[C@@H](C)CC", "note": "[CA-HS-NH-Et-NH2] (H-KWKLFKKIEKVGQNIRDGIIKAGPAVAVVGQATQIAK[hSer]-Ethylenediamine)", "values": [{"measurement": "Potency per nanomole compared with naturally occurring cecropin", "setting": "[1]", "result": "more potent per nanomole than naturally occurring cecropin"}, {"measurement": "Activity per Nanomole (radius of the inhibitory ring)", "setting": "B. subtilis", "result": 2.7, "unit": "millimeters"}]}]}
